# Source: PubChem BioAssay AID2685 (National Center for Advancing Translational Sciences (NCATS), 2010)
# The whole screen tested about 320,000 compounds, of which about 2,100 (0.66%) were called active. Inconclusive means that the source gave no clear call. Such entries were picked first, then a sample of the others. Calls follow the shape of the dose curve; as a rule, active = well fitted inhibition curve with a large enough effect in the signal ratio, with a control signal flat (not every such curve was filed as active); inconclusive = small, poorly fitted or top-dose-only effect, or effect the other way, or a change in a side signal; inactive = flat fitted curve, though single readings scatter; the % refers to the signal ratio. Where the call is inconclusive, the potency comes from a doubtful curve fit.
# Test: qHTS Assay for Lipid Storage Modulators in Drosophila S3 Cells
# Details: BODIPY lipid droplet fluorescence, 18-24 h, cells fed with added oleic acid; lipid storage change, negative = inhibition: at 46.1 µM (top of the series) unless noted
# In short: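 Laser-scanning cytometry quantifies lipid droplet accumulation (500–530 nm total intensity; droplet/cell object ratio) in oleic acid-fed (400 uM added) Drosophila S3 cells treated with a concentration series. 20 uM Triacsin C defined 100% inhibition.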
# % is scaled to controls: 0 for no effect and ±100 for the full control effect; potency is read from the fitted curve at half-maximal effect.
SMILES,"lipid storage change, negative = inhibition",Potency
CCCCC(=O)NC(=S)Nc1nnn(CCC)n1,inconclusive: 4.78%,
O=C1/C(=C\c2ccc([N+](=O)[O-])cc2)CCc2ccccc21,inconclusive: -37.9%,
Cc1cc(C)n(-c2ccc(C(=O)NCc3cccs3)cc2)n1,inconclusive: 42.9%,
COc1ccc(C(=O)NCc2ncccc2C)cc1OC1CCN(C(C)=O)CC1,,"inconclusive: 0.731 µM [falling, partial curve, poor fit]"
O=C(COc1ccc(F)cc1)NC1CC1,inconclusive: -5.33%,
O=C(NC1CCCCCC1)C1CCN(S(=O)(=O)c2c(Cl)cccc2Cl)CC1,,"inconclusive: 18.4 µM [falling, single point]"
Clc1cccc(Cl)c1CSc1nnc(CN2CCOCC2)n1-c1ccccc1,inconclusive: 44.2%,
CC(Oc1ccc(Cl)cc1Cl)C(=O)NC(=S)N1CCc2ccccc21 (centres undefined),inconclusive: -22.6%,
N#C/C(=N\Nc1cc(Cl)cc(Cl)c1)c1nnc2n1CCCCC2,inconclusive: 91.3%,
CCOC(=O)N/N=C/c1c[nH]c2ccccc12,inconclusive: -3.26%,
CCN(CC)c1ccc(N=C2C(=O)Nc3ccccc32)cc1,,"inconclusive: 29.1 µM [cytotoxic, partial curve]"
C=CCn1c(CCn2c3ccccc3c3ccccc32)n[nH]c1=S,inconclusive: 18%,
COCCCN1C(=O)C(=O)/C(=C(/O)c2ccc3c(c2)OCCO3)C1c1ccc(C(=O)OC)cc1 (centres undefined),inconclusive: 10.5%,
COc1nnc(-c2ccc(C)c(S(=O)(=O)NCC3CCCO3)c2)c2ccccc12 (centres undefined),inconclusive: 9.11%,
O=C1c2ccsc2SCCN1Cc1ccc(F)cc1,inconclusive: 22.7%,
Cn1cc(Br)c(C(=O)NNC(=O)c2ccc(Br)cc2)n1,inconclusive: 15.9%,
COc1ccc(S(=O)(=O)N2CCCC(C(=O)NCc3ccccn3)C2)cc1 (centres undefined),,"inconclusive: 6.51 µM [falling, single point]"
Cc1cc(C(=O)Nc2nnc(C3CCCCC3)s2)no1,inconclusive: 1.13%,
Cc1cccc(C)c1NC(=S)N1CCCN(C)CC1,inconclusive: 16.6%,
CCCCN1C(=O)C(O)(CC(=O)c2ccccn2)c2ccccc21 (centres undefined),inconclusive: 3.25%,
Cc1csc(NC(=O)c2cnccn2)n1,inconclusive: 0.793%,
Cc1ccc(N(Cc2ccccc2)C(=O)c2cc(S(=O)(=O)N3CCOCC3)ccc2C)cc1,inconclusive: 25%,
COc1ccc(/C=C/C(=O)Nc2cccc(F)c2)cc1S(=O)(=O)N1CCOCC1,inconclusive: 35.2%,
CC1CCN(C(=O)COC(=O)c2n[nH]c3ccccc23)CC1,inconclusive: 22.3%,
O=C(CSc1nnc(COc2ccc(F)cc2)o1)N1c2ccccc2CCc2ccccc21,inconclusive: -23.2%,
Cc1ccc(-c2nc3c(c(=O)[nH]c(=O)n3CC(C)C)n2CC(C)C)cc1[N+](=O)[O-],,"inconclusive: 29.1 µM [activator, single point]"
Cc1nc(N2CCOCC2)nc(OC(C)C)c1[N+](=O)[O-],inconclusive: 13%,

SMILES,"lipid storage change, negative = inhibition",Potency
COCCNC(=O)CCn1nc(-c2ccc(C)cc2)ccc1=O,inconclusive: 6.95%,
COc1ccc(OCCOC(=O)c2cc(S(=O)(=O)N3CCOCC3)c(Cl)cc2Cl)cc1,inconclusive: 28.7%,
CCOC(=O)c1c(NC(=O)C2CCCCC2C(=O)O)sc2c1CCCCC2 (centres undefined),inconclusive: 10.9%,
Cn1cc(S(=O)(=O)CC(=O)N2CCCc3ccccc32)c2ccccc21,inconclusive: 12.5%,
O=C(NCCc1ccccc1)c1noc2c1CCc1ccccc1-2,,"inconclusive: 0.58 µM [falling, full curve]"
CCCn1nnnc1SCC(=O)NNC(=O)C1CCCCC1,inconclusive: 12%,
N#Cc1cccc(NC(=O)CNc2cccc(S(=O)(=O)N3CCCCC3)c2)c1,inconclusive: -3.26%,
CCCCOc1ccc(C(=O)NCC(=O)OC2CCOC2=O)cc1 (centres undefined),inconclusive: -16.1%,
Cc1ccc(C)c2[nH]c(=O)c(CN(CCCN(C)C)C(=O)NCc3ccccc3)cc12,inconclusive: 19.5%,
Cc1cc(=O)oc2cc(OCC(=O)N3CCN(c4ccccc4)CC3)c(Cl)cc12,inconclusive: 27%,
O=C(N/N=C/C=C/c1ccc([N+](=O)[O-])cc1)C1COc2ccccc2O1 (centres undefined),inactive: 1.32%,
Nc1c(C(=O)NCc2ccco2)c2nc3ccccc3nc2n1CCc1ccccc1F,inconclusive: -74.8%,
Cc1cc2oc(=O)cc(CN3CCCCC3C)c2cc1C(C)C (centres undefined),inconclusive: 80%,
COc1ccc(-n2c(SCC(=O)NCCC(C)C)nc3ccsc3c2=O)cc1,,"inconclusive: 1.03 µM [activator, partial curve]"
O=C(C1CCCCC1)N1CCN(c2ccnc3cc(Cl)ccc23)CC1,inconclusive: -48.8%,
Cc1ccc(C(=O)Nc2ncc(C)s2)s1,,"inconclusive: 23.1 µM [activator, single point]"
COCCn1c(SCC(=O)NC(=O)NCc2ccccc2)nc2ccccc2c1=O,inconclusive: -13.4%,
CC1CC(=O)Nc2ccccc2N1S(=O)(=O)c1ccc(C(F)(F)F)cc1 (centres undefined),inconclusive: -6.26%,
Cc1cc(N/C(=N\S(=O)(=O)c2ccc(Cl)cc2)c2ccc(F)cc2)no1,inconclusive: 11.5%,
CCOC(=O)c1cc(-c2ccccc2)sc1NC(=O)CN1C(=O)NC(CC)(c2ccc(F)cc2)C1=O (centres undefined),inconclusive: 143%,
Cc1cc(C)nc(SCc2ccc([N+](=O)[O-])cc2)n1,inactive: -12.6%,
Cc1cc(NC(=O)C2CCN(S(=O)(=O)c3cccs3)CC2)no1,inconclusive: -11.3%,
CN(CC(=O)Nc1ccccc1Cl)C(=O)Cn1cnc2ccccc2c1=O,inconclusive,
CC(=O)Oc1ccccc1N(C(C)=O)S(=O)(=O)c1ccc(C)cc1,inactive: 6.21%,
COc1cccc(NC(=O)CN(C)C(=O)c2ccc(Cl)c(S(=O)(=O)N3CCCCCC3)c2)c1,inconclusive,
CC#CC[N+](C)(C)CC(=O)c1ccccc1,inconclusive: -13.4%,
Cc1ccccc1NC(=O)CN1C(=O)c2ccccc2C1=O,,"inconclusive: 4.61 µM [activator, full curve, poor fit]"

# Record cards, from the list above:
# Cc1ccc(-c2nc3c(c(=O)[nH]c(=O)n3CC(C)C)n2CC(C)C)cc1[N+](=O)[O-] in the list: Potency: inconclusive: 29.1 µM [activator, single point]
# COc1ccc(OCCOC(=O)c2cc(S(=O)(=O)N3CCOCC3)c(Cl)cc2Cl)cc1 in the list: lipid storage change, negative = inhibition: inconclusive: 28.7%
# Cc1cc(C)nc(SCc2ccc([N+](=O)[O-])cc2)n1 in the list: lipid storage change, negative = inhibition: inactive: -12.6%
